# Measurements published in the supplement of paper PMC8728848.
# The other results are listed elsewhere or left out.
# B1: NanH (Corynebacterium diphtheriae), C6JSW6 (protein)
# chain: MYSSNRTYSRAILGLSAVLTLSFTSLVAPVNAEEPETVVPATAELEGEVAATLPSAETGLLDAAPPKPVARGAAGDLQLPAVNEKEVFEEGRVIRAPEPDQSRCYRIPALVTAKNGDLLLAFDNRYGGGDGAKTWCRDAPYENMKRINRQNMQTDIQLYRSVDNGQSFEDFGYIAQGTADVRELSYTDPALVTDRTTGKIFAFFVRAYDYRVGQSSAGFNEGDVEAEIQKRDVQDTVVVESLDGGQTWGNMRLLSALTAKVSSISTGDTIFDGRGRFVTSGAGIQLQYGEHAGRLIVPISVDIDPKDSAKFINLAIYSDDHGQTWQAGIGTAGGAGFSGDVSKIVELSDGRLMMSSKDNDKPRWVSYSEDQGENWSTPKRKIIAPPQHPEKHNTGINVGLIRAYPNAPENSAAARVLLYSAPIDQRYSHKHTEDGRNNGWVMGSCDDGKTWSFGRQIEKNRFQYSSMTVMSDGNIGMVYESGDFSTGMNLKFAKFNMAWLGADCHSNEALGLTGDIDKEIVEAQEKAAEATKEAQEAAEKVQKLTEELAAARKENDELKNQVKGFKEAVGDLANEAEDLADKVFKLETAVTEAKEKATVAEKAASDAVTQLQKAESIAEEQKAKAESAAAEAQALREKLERLEGSILTVKENPEAEEIADLSSTAKDAADAARRAATDANGALSGQKQDEEKPAMGLMGILKVLAGIIPLVAIIATIFQTFRLPFNIPGMR
# Assays:
# Test in all cases: glycan array binding signal (z-score within array); higher = stronger binding
# Settings in all cases: glycan notation: IUPAC condensed, linker removed
# [1] = molecular target: Gal(b1-3)GlcNAc(a1-6)Gal(b1-4)GlcNAc
# Method in brief: (§1)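 From the Consortium for Functional Glycomics database, 3228 arrays were curated, keeping only those whose protein sequence was available. Binding is given as a within-array Z-score averaged across arrays sharing a protein sequence and across linkers. Negative Z-scores can be read as non-binding.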
# [2] = molecular target: Gal(b1-3)GlcNAc(b1-2)Man(a1-3)[Gal(b1-3)GlcNAc(b1-2)Man(a1-6)]Man(b1-4)GlcNAc(b1-4)GlcNAc
# Method in brief: as §1
# [3] = molecular target: Gal(b1-3)GlcNAc(b1-2)Man(a1-3)[Gal(b1-3)GlcNAc(b1-2)Man(a1-6)]Man(b1-4)GlcNAc(b1-4)[Fuc(a1-6)]GlcNAc
# Method in brief: as §1
# [4] = molecular target: Gal(b1-3)GlcNAc(b1-2)[Gal(b1-3)GlcNAc(b1-6)]Man(a1-6)[Gal(b1-3)GlcNAc(b1-2)Man(a1-3)]Man(b1-4)GlcNAc(b1-4)GlcNAc
# Method in brief: as §1
# [5] = molecular target: Gal(b1-3)GlcNAc(b1-3)Gal(b1-3)GlcNAc
# Method in brief: as §1
# [6] = molecular target: Gal(b1-3)GlcNAc(b1-3)Gal(b1-4)Glc
# Method in brief: as §1
# [7] = molecular target: Gal(b1-3)GlcNAc(b1-3)Gal(b1-4)GlcNAc
# Method in brief: as §1
# [8] = molecular target: Gal(b1-3)GlcNAc(b1-3)Gal(b1-4)GlcNAc(b1-6)[Gal(b1-3)GlcNAc(b1-3)]Gal(b1-4)Glc
# Method in brief: as §1
# [9] = molecular target: Gal(b1-3)GlcNAc(b1-3)Gal(b1-4)[Fuc(a1-3)]GlcNAc(b1-6)[Gal(b1-3)GlcNAc(b1-3)]Gal(b1-4)Glc
# Method in brief: as §1
# [10] = molecular target: Gal(b1-3)GlcNAc(b1-3)GalNAc
# Method in brief: as §1
# [11] = molecular target: Gal(b1-3)GlcNAc(b1-6)Gal(b1-4)GlcNAc
# Method in brief: as §1
# [12] = molecular target: Gal(b1-3)[Fuc(a1-4)]GlcNAc
# Method in brief: as §1
# [13] = molecular target: Gal(b1-3)[Fuc(a1-4)]GlcNAc(b1-2)Man(a1-3)[Gal(b1-3)[Fuc(a1-4)]GlcNAc(b1-2)Man(a1-6)]Man(b1-4)GlcNAc(b1-4)GlcNAc
# Method in brief: as §1
# [14] = molecular target: Gal(b1-3)[Fuc(a1-4)]GlcNAc(b1-2)Man(a1-3)[Gal(b1-3)[Fuc(a1-4)]GlcNAc(b1-2)Man(a1-6)]Man(b1-4)GlcNAc(b1-4)[Fuc(a1-6)]GlcNAc
# Method in brief: as §1
# [15] = molecular target: Gal(b1-3)[Fuc(a1-4)]GlcNAc(b1-3)Gal(b1-3)[Fuc(a1-4)]GlcNAc
# Method in brief: as §1
# [16] = molecular target: Gal(b1-3)[Fuc(a1-4)]GlcNAc(b1-3)Gal(b1-4)GlcNAc
# Method in brief: as §1
# [17] = molecular target: Gal(b1-3)[Fuc(a1-4)]GlcNAc(b1-3)Gal(b1-4)[Fuc(a1-3)]GlcNAc
# Method in brief: as §1
# [18] = molecular target: Gal(b1-3)[GlcNAc(b1-6)]GalNAc
# Method in brief: as §1
# [19] = molecular target: Gal(b1-3)[Neu5Ac(a2-6)]GalNAc
# Method in brief: as §1
# [20] = molecular target: Gal(b1-3)[Neu5Ac(a2-6)]GlcNAc(b1-6)Gal(b1-4)Glc
# Method in brief: as §1
# [21] = molecular target: Gal(b1-3)[Neu5Ac(b2-6)]GalNAc
# Method in brief: as §1
# Gal(b1-4)Gal = molecular target: Gal(b1-4)Gal
# Method in brief: as §1
# [22] = molecular target: Gal(b1-4)GalNAc(a1-3)[Fuc(a1-2)]Gal(b1-4)GlcNAc
# Method in brief: as §1
# [23] = molecular target: Gal(b1-4)GalNAc(b1-3)[Fuc(a1-2)]Gal(b1-4)GlcNAc
# Method in brief: as §1
# Gal(b1-4)Glc = molecular target: Gal(b1-4)Glc
# Method in brief: as §1
# Gal(b1-4)Glc6S = molecular target: Gal(b1-4)Glc6S
# Method in brief: as §1
# Gal(b1-4)GlcNAc = molecular target: Gal(b1-4)GlcNAc
# Method in brief: as §1
# [24] = molecular target: Gal(b1-4)GlcNAc(a1-6)Gal(b1-4)GlcNAc
# Method in brief: as §1
# Gal(b1-4)GlcNAc(b1-2)Man = molecular target: Gal(b1-4)GlcNAc(b1-2)Man
# Method in brief: as §1
# [25] = molecular target: Gal(b1-4)GlcNAc(b1-2)Man(a1-3)Man(b1-4)GlcNAc(b1-4)GlcNAc
# Method in brief: as §1
binder,measurement,setting,value
B1,glycan array binding signal (z-score),[1],-0.677
same,glycan array binding signal (z-score),[2],-0.48
same,glycan array binding signal (z-score),[3],-1.34
same,glycan array binding signal (z-score),[4],0.848
same,glycan array binding signal (z-score),[5],-0.613
same,glycan array binding signal (z-score),[6],-1.28
same,glycan array binding signal (z-score),[7],-0.308
same,glycan array binding signal (z-score),[8],-0.073
same,glycan array binding signal (z-score),[9],0.902
same,glycan array binding signal (z-score),[10],-1.71
same,glycan array binding signal (z-score),[11],-0.126
same,glycan array binding signal (z-score),[12],0.201
same,glycan array binding signal (z-score),[13],1.03
same,glycan array binding signal (z-score),[14],2.84
same,glycan array binding signal (z-score),[15],-0.787
same,glycan array binding signal (z-score),[16],0.675
same,glycan array binding signal (z-score),[17],-1.18
same,glycan array binding signal (z-score),[18],-0.083
same,glycan array binding signal (z-score),[19],-0.334
same,glycan array binding signal (z-score),[20],-0.633
same,glycan array binding signal (z-score),[21],-0.601
same,glycan array binding signal (z-score),Gal(b1-4)Gal,-1.5
same,glycan array binding signal (z-score),[22],-0.104
same,glycan array binding signal (z-score),[23],0.12
same,glycan array binding signal (z-score),Gal(b1-4)Glc,-0.023
same,glycan array binding signal (z-score),Gal(b1-4)Glc6S,-0.262
same,glycan array binding signal (z-score),Gal(b1-4)GlcNAc,0.72
same,glycan array binding signal (z-score),[24],0.525
same,glycan array binding signal (z-score),Gal(b1-4)GlcNAc(b1-2)Man,1.74
same,glycan array binding signal (z-score),[25],0.675

# 2 neighbouring records out of the list so far, for reference:
binder,measurement,setting,value
B1,glycan array binding signal (z-score),[1],-0.677
same,glycan array binding signal (z-score),[2],-0.48
